Experimental data: PubChem BioAssay AID1259308 (NCATS, 2017)
Assay: 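Genes whose loss raises luciferase production in HEK293 cells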 (primary screen). Cells: human HEK293 embryonic kidney cells stably expressing firefly luciferase (HEK-CMV-Luc2-Hygro). Knock-down reagent: single siRNA against human genes, 0.8 pmol siRNA per well. Timing: 72 h. Measured: 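Reporter luminescence and viable-cell signal on separate replicate plates, given as percent of non-targeting control and median/MAD z-scores, plus per-cell luciferase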. Direction: total luciferase, z-score: higher = more reporter protein produced. Call rule: 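An siRNA counts as active if its total luciferase robust z-score exceeds 3; genes with two or more such siRNAs out of three were retested with fresh siRNAs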. Calls: active = raised luciferase; inactive = no rise.
Shown is a random part of about 59,000 reagents tested. About 1,510 of them (2.6%) count as active. 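Calls use total luciferase alone and ignore viability, so some active siRNAs may act by altering cell number.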 Unmarked entries are inactive. Reagents against one gene are numbered here. Further read-outs or replicates are left out here.

Depletion of TTLL9 #1 resulted in: total luciferase, z-score 1.39. After knock-down of TTLL9 #2, the record shows total luciferase, z-score 0.346. With knock-down of TTLL9 #3 the results were total luciferase, z-score -0.213. Knock-down of TTC4 #1 resulted in: total luciferase, z-score 2.22. Depletion of TTC4 #2 gave: total luciferase, z-score 0.474. Against TTC4 #3, the values are total luciferase, z-score 0.807.

Against IQCF5 #1 the deposit lists total luciferase, z-score -0.819. IQCF5 #2 gave total luciferase, z-score 0.908. IQCF5 #3 showed total luciferase, z-score -0.56. After knock-down of POP4 #1 the results were total luciferase, z-score 0.268. POP4 #2 scored total luciferase, z-score -0.414. With knock-down of POP4 #3, the record shows total luciferase, z-score -0.761.

AGVR6190 (retired record) #1 showed total luciferase, z-score -1.03. With knock-down of AGVR6190 (retired record) #2, the record shows total luciferase, z-score -0.606. For AGVR6190 (retired record) #3, the entry reads total luciferase, z-score -0.499. Against PSMD14 #1 the deposit lists total luciferase, z-score -0.53. After knock-down of PSMD14 #2, the record shows total luciferase, z-score 0.0989. With knock-down of PSMD14 #3 the results were total luciferase, z-score -0.46.

For HOXC4 #1 the deposit lists total luciferase, z-score 0.111. Silencing of HOXC4 #2 resulted in: total luciferase, z-score -0.303. HOXC4 #3 scored total luciferase, z-score -1.38.

Copied from the entries so far for reference:
TTC4 #3: total luciferase, z-score = 0.807
IQCF5 #1: total luciferase, z-score = -0.819
IQCF5 #2: total luciferase, z-score = 0.908
